Test results from US20140057807A1.
These are yes or no findings as the source states them, for the method shown. A result given as binding can be weak or reduced; the word gives no strength.

B1: SEQ ID NO 119 (designed binder)
chain: VSDVPRDLEVVAATPTSLLISWDAPAVTVRKYQISYGYYSNTDQEFTVPGSKSTATISGLKPGVDYWIYVSAVAWQADQGPISINYRT
B2: SEQ ID NO 137 (designed binder)
chain: NVSPPRRARVTDATETTITISWRTKTETITQFHVTAGPHWVGRIQRTIKPDVRSYTITGLQPGTAYLIYALSTLRSYRYQWPVVIDAST
B3: SEQ ID NO 116 (designed binder)
chain: VSDVPRDLGVVAATPTSLLISWDAPAVTVRKYMISYTLMGHLHYGASQEFTVPGSKSTATISGLKPGVVYYGIYVLAVSEYQVASPISINYRT
B4: SEQ ID NO 136 (designed binder)
chain: NVSPPRRARVTDATETTITISWRTKTETITGFSVWAQPGYLEEIQRTIKPDVRSYTITGLQPGTSYDSIALSTLGRYRWSDPVVIDAST
B5: SEQ ID NO 110 (designed binder)
chain: ISDVPRDLEVVAATPTSLLISWDAPAVTVRGYSIHYYYYSFTGQEFTVPGSKSTATISGLKPGVSYWIRVWAVRFWEYLPPISINYRT
B6: SEQ ID NO 112 (designed binder)
chain: VSDVPRDLEVVAATPTSLLISWDAPAVTVRIYSIGSQEFTVPGSKSTATISGLKPGVWYWIYVAAVRAWSYWHPISINYRT
B7: SEQ ID NO 98 (designed binder)
chain: PLSPPTNLHLEANPDTGVLTVSWERSTTPDITAYYIYTYKSDKTRYLEEVVHADQSSCTFDNLSPGLYYGVGAVATVRPHPTAGPISDTIIP
B8: SEQ ID NO 121 (designed binder)
chain: VSDVPRDLEVVAATPTSLLISWDAPAVTVRQVYVIAYRYYVRSWGQEFTVPGSKSTATISGLKPGVYYSINVLAVYYRTWRPISINYRT
B9: SEQ ID NO 122 (designed binder)
chain: VSDVPRDLEVVAATPTSLLISWDAPAVTVRSYDISYNGMAYTKTLVQEFTVPGSKSTATISGLKPGVNYLIDVIAVSFRRWWSPISINYRT
B10: SEQ ID NO 138 (designed binder)
chain: NVSPPRRARVTDATETTITISWRTKTETITYFHVSALPLVYGSYIQRTIKPDVRSYTITGLQPGTTYDIYLSTLNSHWLTAPVVIDAST
B11: SEQ ID NO 135 (designed binder)
chain: NVSPPHRARVTDATETTITISWRTKTETITNFLVYAYPTEHVRIQRTIKPDVRSYTITGLQPGTKYWIYLYTLIYNMYYPVVIDAST
B12: SEQ ID NO 134 (designed binder)
chain: NVSPPRRARVTDATETTITISWRTKTETITSFSVIAFPLRERAATIQRTIKPDVRSYTITGLQPGTLYSIILNTLWRYYPIPVVIDAST
B13: SEQ ID NO 101 (designed binder)
chain: VSDVPRDLEVVAATPTSLLISWDAPAVTVRTYYIMYSLWQHYVTNALQEFTVPGSKSTATISGLKPGVFYGILVYAVSWWSRWPISINYRT
B14: SEQ ID NO 126 (designed binder)
chain: VSDVPRDLEVVAATPTSLLISWDAPAVTVRVYEISYYSSESYLPGQEFTVPGSKSTATISGLKPGVTYDIHVSAVAYRGASPISINYRT
B15: SEQ ID NO 117 (designed binder)
chain: VSDVPRDLEVVAATPTSLLISWDAPAVTVRSYNISYSKYHYSPAYQEFTVPGSKSTATISGLKPGVQYYISVSAVHAHNVAGPISINYRT
B16: SEQ ID NO 130 (designed binder)
chain: NVSPPRRARVTDATETTITISWRTKTETITSFWVWAKPYSYYWGSIQRTIKPDVRSYTITGLQPGTWYAINLYTLTYRFWGDPVVIDAST
B17: SEQ ID NO 132 (designed binder)
chain: NVSPPRRARVTDATETTITISWSTKTETITSFVVGARPYYYPYIQRTIKPDVRSYTITGLQPGTVYGIWLQTLRYYYGYTPVVIDAST
B18: SEQ ID NO 99 (designed binder)
chain: PLSPPTNLHLEANPDTGVLTVSWERSTTPDITHYLIYTYGHHSAGLEEVVHADQSSCTFDNLSPGLGYSVYVNTVAYKTMGPISDTIIP
B19: SEQ ID NO 123 (designed binder)
chain: VSDVPRDLEVVAATPTSLLISWDAPAVTVRNYAISYQDDSPYVQEFTVPGSKSTATISGLKPGVNYDISVTAVGWWRSGMPISINYRT
B20: SEQ ID NO 114 (designed binder)
chain: VSDVPRDLEVVAATPTSLLISWDAPAVTVRSYEIGYEYIYLQYSQEFTVPGSKSTATISGLKPGVMYSIVVYAVNKVYSYFPISINYRT
B21: SEQ ID NO 124 (designed binder)
chain: VSDVPRDLEVVAATPTSLLISWDAPAVTVRTYDIGYSSFNSSTLYVQEFTVPGSKSTATISGLKPGVNYDISVTAVRLQESQRPISINYRT
B22: SEQ ID NO 131 (designed binder)
chain: NVSPPRRARVTDATETTITISWRTKTETITYFGDVSAGPSSTYIESIQRTIKPDVRSYTITGLQPGTWYNIVLQTLYSWSYWPVVIDAST
B23: SEQ ID NO 106 (designed binder)
chain: VSDVPRDLEVVAATPTSLLIPWDAPAVTVRGYKIDYVVQTWAYYQEFTVPGSKSTATISGLKPGVSYAITVLAVYRWYYSPISINYRT
B24: SEQ ID NO 125 (designed binder)
chain: VSDVPRDLEVVAATPTSLLISWDAPAVTVREYDIYYVDSYYYFEGQYPHQEFTVPGSKSTATISDLKPGVTYDIGVKAVYNGSRIVEPISINYRT
B25: SEQ ID NO 108 (designed binder)
chain: VSDVPRDLEVVAATPTSLLISDAPAVTVRSYYIYYYDYDGGSVQEFTVPGSKSTATISGLKPGVSYVISVAAVWYAAYRYPISINYRT
B26: SEQ ID NO 127 (designed binder)
chain: VSDVPRDLEVVAATPTSLLISWDAPAVTVREYLIGYAVTEYGDRQEFTVPGSKSTATISGLKPGVLYDIRVLAVYARWPKPISINYRT
B27: SEQ ID NO 113 (designed binder)
chain: VSDVPRDLEVVAATPTSLLISWDAPAVTVREYYIYYGSSQETEGQEFTVPGSKSTATISGLKPGVNYSIGVAAVQNIYTYYPISINYRT
B28: SEQ ID NO 105 (designed binder)
chain: VSDVPRDLEVVAATPTSLLISWDAPAVTVRLYAIMYTAYEYRVMDAKLYQEFTVPGSKSTATISGLKPGVSYYINVAAVYLHRYFYPISINYRT
B29: SEQ ID NO 107 (designed binder)
chain: VSDVPRDLEVVAATPTSLLISWDAPAVTVRGYGIDYGQRDYQQGSQQEFTVPGSKSTATISGLKPGVQYDIYVGAVETYVYARPISINYRT
B30: SEQ ID NO 102 (designed binder)
chain: VSDVPRDLEVVAATPTSLLISWDAPAVTVRSYYIKYSTCSHYVRSGVGQEFTVPGSKSTATISGLKPGVDYMIDVNAVLSEGRGDPISINYRT
B31: SEQ ID NO 109 (designed binder)
chain: VSDVPRDLEVVAATPTSLLISWDAPAVTVRNYLIDYGYKNYSIAGQEFTVPGSKSIATISGLKPGVFYAILVAAVRYFWYFPISINYRT
B32: SEQ ID NO 103 (designed binder)
chain: VSDVPRDLEVVAATPTSLLISWDAPAVTVRGYTTYSYRDSQEFTVPGSKSTATISGLKPGVIYNILVSAVSEWWKYPISINYRT
B33: SEQ ID NO 133 (designed binder)
chain: NVSPPRRARVTDATETTITISWRTKTETITAFEVVAHPNYDYYIQRTIKPDVRSYTITGLQPGTSYWIYLYTLYSRRYLPVVIDAST
B34: SEQ ID NO 111 (designed binder)
chain: VSDVPRDLEVVAATPTSLLISWDAPAVTVRGYDIAYGVNYYYYSYQEFTVPGSKSTATISGLKPGVVYGIYVAAVRYWHYLFPISINYRT
B35: SEQ ID NO 115 (designed binder)
chain: VSDVPRDLEVVAATPTSLLISWDAPAVTVRTYSISYFDYLHLYSQEFTVQGSKSTATISGLKPGVYYAIYVWAVGWWLADPISINYRT
B36: SEQ ID NO 104 (designed binder)
chain: VSDVPRDLEVVAATPTSLLISWDAPAVTVRYYEIWYESYFYVLWQEFTVPGSKSTATISGLKPGVSYEITVSAVYWHYAYPISINYRT
B37: SEQ ID NO 120 (designed binder)
chain: VSDVPRDLEVVAATPTSLLISWDAPAVTVRTYSISYRYGKWSGQEFTVPGSKSTATISGLKPGVYYDIGVTAVTSVVSGPISINYRT
B38: SEQ ID NO 128 (designed binder)
chain: VSDVPRDLEVVAATPTSLPISWDAPAVTVRYYSIWYYHYYPYAQEFTVPGSKSTATISSLKQGVRYFIDVLAVAWVRWAYPISINYRT

Molecular target: lysozyme
Assay: cradle library selection hit

binding, binds:
B1, B2, B3, B4, B5, B6, B7, B8, B9, B10, B11, B12, B13, B14, B15, B16, B17, B18, B19, B20, B21, B22, B23, B24, B25, B26, B27, B28, B29, B30, B31, B32, B33, B34, B35, B36, B37, B38
